Where a chain is given by its changes, count along the chain named. These are yes or no findings as the source states them, for the method shown. In cells and extracts the contact can be indirect. Some entries that bind do so weakly or less than the wild type. For some of these results: Where a sequence is shown, tags or fusion partners need not be part of it.
Columns and labels:
Assay in all cases: co-IP; lysates of HEK293A-T-REx cells stably expressing RAD9-mH (WT or mutants); anti-myc antibody-coated agarose beads; HEPES buffer pH 7.4, 150 mM NaCl, 0.1% NP40, 0.1% Triton X-100; with or without UV (PLK1-HA), with 0.2 mM HU for 24 hr (CLASPIN); blots with anti-PLK1, anti-CLASPIN, anti-RAD9
[1] = target: T1, RAD9-WT-mH (wild-type RAD9 with C-terminal myc-His6 tag) (human) (UniProt Q99638)
T1 sequence: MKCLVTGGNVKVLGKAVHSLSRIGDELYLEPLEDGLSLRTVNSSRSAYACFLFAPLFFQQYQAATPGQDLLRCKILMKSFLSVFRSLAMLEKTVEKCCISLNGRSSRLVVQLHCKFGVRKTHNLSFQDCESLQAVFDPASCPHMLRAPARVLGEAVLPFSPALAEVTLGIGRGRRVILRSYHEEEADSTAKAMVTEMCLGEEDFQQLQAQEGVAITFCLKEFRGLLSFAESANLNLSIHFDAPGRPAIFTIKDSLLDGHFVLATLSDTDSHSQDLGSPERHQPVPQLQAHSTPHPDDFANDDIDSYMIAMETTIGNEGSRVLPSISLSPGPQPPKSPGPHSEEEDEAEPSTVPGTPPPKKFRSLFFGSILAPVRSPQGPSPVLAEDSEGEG

By UniProt entry, the sequences of proteins in these tests, tags left out.
UniProt P53350: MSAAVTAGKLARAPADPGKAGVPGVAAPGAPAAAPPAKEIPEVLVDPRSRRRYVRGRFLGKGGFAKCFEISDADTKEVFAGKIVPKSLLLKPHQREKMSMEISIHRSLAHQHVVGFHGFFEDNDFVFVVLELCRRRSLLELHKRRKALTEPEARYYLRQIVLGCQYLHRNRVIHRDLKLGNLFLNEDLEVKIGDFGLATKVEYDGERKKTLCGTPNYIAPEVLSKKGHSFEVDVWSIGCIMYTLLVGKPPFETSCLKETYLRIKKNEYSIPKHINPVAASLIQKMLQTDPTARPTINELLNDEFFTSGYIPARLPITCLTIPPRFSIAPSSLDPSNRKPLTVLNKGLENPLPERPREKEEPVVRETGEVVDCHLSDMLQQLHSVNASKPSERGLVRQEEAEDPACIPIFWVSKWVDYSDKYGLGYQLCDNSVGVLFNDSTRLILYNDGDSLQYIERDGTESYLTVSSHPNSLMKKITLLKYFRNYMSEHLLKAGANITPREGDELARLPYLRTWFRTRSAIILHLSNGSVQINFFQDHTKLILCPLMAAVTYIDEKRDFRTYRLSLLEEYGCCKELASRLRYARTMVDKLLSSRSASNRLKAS
UniProt Q9HAW4: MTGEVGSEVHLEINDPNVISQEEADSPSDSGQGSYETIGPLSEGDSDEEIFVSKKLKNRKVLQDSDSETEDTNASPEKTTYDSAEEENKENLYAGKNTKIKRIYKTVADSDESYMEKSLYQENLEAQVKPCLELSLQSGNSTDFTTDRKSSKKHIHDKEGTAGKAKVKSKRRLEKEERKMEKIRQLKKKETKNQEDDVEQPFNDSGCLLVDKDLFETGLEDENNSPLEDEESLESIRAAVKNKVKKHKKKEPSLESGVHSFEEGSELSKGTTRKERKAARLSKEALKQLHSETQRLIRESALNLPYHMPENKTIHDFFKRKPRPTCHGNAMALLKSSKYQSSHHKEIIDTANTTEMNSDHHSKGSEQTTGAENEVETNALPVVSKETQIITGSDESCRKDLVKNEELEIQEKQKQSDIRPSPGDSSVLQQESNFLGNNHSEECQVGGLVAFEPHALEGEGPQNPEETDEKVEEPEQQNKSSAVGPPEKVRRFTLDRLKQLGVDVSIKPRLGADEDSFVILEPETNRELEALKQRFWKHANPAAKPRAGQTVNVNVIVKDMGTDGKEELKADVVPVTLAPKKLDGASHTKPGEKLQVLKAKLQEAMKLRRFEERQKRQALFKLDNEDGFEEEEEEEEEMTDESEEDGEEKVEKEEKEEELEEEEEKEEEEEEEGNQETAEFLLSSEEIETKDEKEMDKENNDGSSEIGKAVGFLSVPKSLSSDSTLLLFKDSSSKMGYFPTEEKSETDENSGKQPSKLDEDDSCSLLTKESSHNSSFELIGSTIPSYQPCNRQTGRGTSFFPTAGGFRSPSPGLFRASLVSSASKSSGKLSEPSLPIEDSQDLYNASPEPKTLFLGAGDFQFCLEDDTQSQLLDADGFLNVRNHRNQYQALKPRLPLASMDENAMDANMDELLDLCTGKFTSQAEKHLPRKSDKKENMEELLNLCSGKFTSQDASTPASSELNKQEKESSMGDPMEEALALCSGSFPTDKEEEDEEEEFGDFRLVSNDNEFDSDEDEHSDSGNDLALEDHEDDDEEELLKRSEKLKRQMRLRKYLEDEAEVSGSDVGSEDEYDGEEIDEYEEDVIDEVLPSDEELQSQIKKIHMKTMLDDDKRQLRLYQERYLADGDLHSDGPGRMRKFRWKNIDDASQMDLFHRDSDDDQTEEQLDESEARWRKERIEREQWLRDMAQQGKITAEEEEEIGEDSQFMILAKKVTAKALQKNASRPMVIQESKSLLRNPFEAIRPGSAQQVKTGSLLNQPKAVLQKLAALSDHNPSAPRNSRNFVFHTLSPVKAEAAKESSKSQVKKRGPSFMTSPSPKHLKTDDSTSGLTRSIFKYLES

[2] = target: T2, RAD9-S291A/T292A-mH (human) (UniProt Q99638)
T2 sequence: T1 sequence with S291A, T292A

RAD9-T313A-mH (human) = target: T3, RAD9-T313A-mH (human) (UniProt Q99638)
T3 sequence: T1 sequence with T313A

Row | binding [1] | binding [2] | binding (RAD9-T313A-mH (human)) | Substance
1 | binds | – | – | PLK1, endogenous (from UniProt P53350 1-603) (enzyme)
2 | – | binds | binds | CLASPIN, endogenous (from UniProt Q9HAW4 1-1339)
3 | binds | – | – | PLK1-HA, ectopically expressed (from UniProt P53350 1-603) (enzyme)

Reference: paper PMC5736350
